Numbering of substitutions follows the chain as printed. No constants are given. Whether binding was seen depends on the method and setting. In cells and extracts the contact can be indirect.
How the values were obtained:
Assay in all cases: cross-linking
[1] = biological target: T1, FepA R75C (Escherichia coli K-12) (UniProt P05825)
T1 sequence: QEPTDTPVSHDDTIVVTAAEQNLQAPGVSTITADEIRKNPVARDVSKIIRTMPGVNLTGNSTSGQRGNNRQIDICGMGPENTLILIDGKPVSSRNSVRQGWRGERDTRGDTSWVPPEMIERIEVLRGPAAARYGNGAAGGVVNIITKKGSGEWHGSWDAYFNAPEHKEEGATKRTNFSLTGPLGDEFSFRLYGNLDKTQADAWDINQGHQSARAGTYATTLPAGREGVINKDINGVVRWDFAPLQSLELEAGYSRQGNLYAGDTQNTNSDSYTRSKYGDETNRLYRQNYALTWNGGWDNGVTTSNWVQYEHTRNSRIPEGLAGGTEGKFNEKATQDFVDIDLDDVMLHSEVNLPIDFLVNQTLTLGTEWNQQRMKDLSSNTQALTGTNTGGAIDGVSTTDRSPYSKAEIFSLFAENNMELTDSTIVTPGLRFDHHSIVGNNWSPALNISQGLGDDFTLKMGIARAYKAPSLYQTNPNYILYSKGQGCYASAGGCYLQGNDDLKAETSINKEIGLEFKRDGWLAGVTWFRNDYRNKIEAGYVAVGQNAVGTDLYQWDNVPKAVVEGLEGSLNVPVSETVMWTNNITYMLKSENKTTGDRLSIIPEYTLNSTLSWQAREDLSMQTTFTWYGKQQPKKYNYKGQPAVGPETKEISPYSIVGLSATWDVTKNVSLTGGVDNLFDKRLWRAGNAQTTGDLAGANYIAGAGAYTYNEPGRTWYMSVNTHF

By UniProt entry, the sequences of proteins in these tests, tags left out. Where a name states a change or a piece, a line headed by the entry shows the natural chain unless it says otherwise.
UniProt P02929, whole entry, looked up, stated change not applied: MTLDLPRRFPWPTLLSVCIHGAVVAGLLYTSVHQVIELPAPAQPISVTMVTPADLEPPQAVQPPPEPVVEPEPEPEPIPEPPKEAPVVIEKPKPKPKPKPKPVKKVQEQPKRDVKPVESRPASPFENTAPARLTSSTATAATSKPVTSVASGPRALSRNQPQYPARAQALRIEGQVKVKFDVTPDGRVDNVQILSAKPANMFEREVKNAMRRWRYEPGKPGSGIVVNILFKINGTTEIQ

[2] = biological target: T2, FepA I145C (Escherichia coli K-12) (UniProt P05825)
T2 sequence: T1 sequence with C75R, I145C

[3] = biological target: T3, FepA R126C (Escherichia coli K-12) (UniProt P05825)
T3 sequence: T1 sequence with C75R, R126C

Measured: binding

TonB C18G A209C (from UniProt P02929 1-239)
no binding: [1] | [2] | [3]

TonB C18G M201C (from UniProt P02929 1-239)
no binding: [1] | [2] | [3]

TonB C18G N208C (from UniProt P02929 1-239)
no binding: [1] | [2] | [3]

TonB C18G Q160C (from UniProt P02929 1-239)
no binding: [1] | [2] | [3]

TonB C18G R204C (from UniProt P02929 1-239)
no binding: [1] | [2] | [3]

TonB C18G R212C (from UniProt P02929 1-239)
no binding: [1] | [2] | [3]

TonB C18G R214C (from UniProt P02929 1-239)
no binding: [1] | [2] | [3]

TonB C18G V206C (from UniProt P02929 1-239)
no binding: [1] | [2] | [3]

Source: paper doi:10.1101/2021.12.08.471779
